Laboratory results reported in the supplement of paper PMC5949888.
Most values lie at the floor of the assay. Slopes are relative: functional sequences can read slightly below zero.

test system: Saccharomyces cerevisiae PS128 hsf1 delta, HSF1(1-493) fusion; assay: growth estimate (transactivation domain function in HSF1 fusion, heat-shock survival) (a.u. (slope of normalised read count over time)); higher = stronger growth at 37°C, i.e. more transactivation activity; details: library: random library
Protocol: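 Random 60-nt DNA library encoding peptides of up to 20 aa, fused to the C-terminus of yeast HSF1 residues 1-493 (C-terminal TAD deleted) and expressed from the native HSF1 promoter on a CEN plasmid in hsf1-deleted S. cerevisiae PS128. Cells were selected at 37°C on -trp 5-FOA plates for 0, 2, 4, 6 and 8 days and amplicons were sequenced. Growth estimate is the slope of a robust linear fit of total-sum-normalised read counts (normalised to the first time point) over time, using at least 2 replicates. Sequences are classed functional (TAD activity) above a threshold of -0.13, set from stop-codon control sequences.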

| Substance | growth estimate |
| --- | --- |
| RKLGYQFEPMSF | < -0.25 |
| RIHPTVEVFSIRACGSGLRL | < -0.25 |
| LTHCAGVFCHNQRVYALTC | < -0.25 |
| TDISGSTGR | < -0.25 |
| ELS | < -0.25 |
| YYLTECQELDPTLWIPKCGP | 0.788 |
| KVYCHP | < -0.25 |
| FKVTGLKSPLQAAF | < -0.25 |
| SVYQQVESPMHGSSVAGRAF | < -0.25 |
| VWRDYRASVEASLLIMASSR | < -0.25 |
| REGERRSIEPG | < -0.25 |
| LQKIRRS | < -0.25 |
| EAGSSPQNSYCLSALSG | < -0.25 |
| SRHGAAIVGLLVYEGTLRSE | < -0.25 |
| KGVIDD | < -0.25 |
| PPGGGWHSG | < -0.25 |
| GRLSLDAPAY | < -0.25 |
| GLGDFVPVRLVLGSNGLPLH | < -0.25 |
| RPRVRVVWGNNLDMGGAC | < -0.25 |
| VSRWSIRPSVGHRTGSGAAS | < -0.25 |
| KWQVIRRSS | < -0.25 |
| SIIRNVRRLRSVR | < -0.25 |
| AKG | < -0.25 |
| PGWILLCKDIRNNMVCGCNT | < -0.25 |
| IGVVPSTLRIDVSLQIATCR | < -0.25 |
| EGNGGLEIDWIA | < -0.25 |

| Substance | growth estimate |
| --- | --- |
| LGPSLNAFRKALCSYYGWNS | -0.245 |
| RSDLSERQRTLRIT | < -0.25 |
| ETFKLGTYIFRGLPIASPKM | < -0.25 |
| RTRLTNPGFLLRPFPSFRDG | < -0.25 |
| PRAVNL | < -0.25 |
| QRVLRGAIHYSMQSPL | < -0.25 |
| SLRSPEALRWS | < -0.25 |
| RTTKFRIARVYYVESGQ | < -0.25 |
| VLLDSHPWYFAGDNNSGTYG | < -0.25 |
| TSGVSAGAENRKLLNDWDFR | < -0.25 |
| AVIPPGVSLRLSRVWHIPRK | < -0.25 |
| IFPEARGM | < -0.25 |
| CFSNGNLAP | < -0.25 |
| VPSDSGRM | < -0.25 |
| RIQWCSTALPRAFRY | < -0.25 |
| HPQWAGSYLCSPRKTYG | < -0.25 |
| RFMGFIRLPRKRPSLCVVRL | < -0.25 |
| NMARGHDAG | < -0.25 |
| RNGKLFRKCYDIVC | < -0.25 |
| WRGVAIGCQFTSVGASGCGG | < -0.25 |
| LSNEESDLGGT | < -0.25 |
| ILRVFVLWGFSGANLSSLRG | < -0.25 |
| SDDYLGVTGCLSSKPSATHS | < -0.25 |
| SATHFLEYVSRAFVANPQTV | < -0.25 |
| EGQMSS | < -0.25 |
| SHL | < -0.25 |

| Substance | growth estimate |
| --- | --- |
| ATRRHWVLRMVVSLETELLQ | < -0.25 |
| AVQVLQLEWIVAVREVPNGF | -0.246 |
| RERRAGVRVIIFN | < -0.25 |
| LTDRGPEFHLYGVRIETIKP | < -0.25 |
| LTAWFGS | < -0.25 |
| HLLLSSNFVGILCQPLRSHR | < -0.25 |
| DIQKFRRVSGIVECV | < -0.25 |
| MSVKGPIYGI | < -0.25 |
| RIMPFVF | < -0.25 |
| ESRGTRSWRLH | < -0.25 |
| RKRPN | < -0.25 |
| GGSLDSVAAAEDPAPSSIWI | < -0.25 |
| TTWQL | < -0.25 |
| IANDRQIGLSG | < -0.25 |
| NTEFSAS | < -0.25 |
| PDIRLKRAETYGMDCKECCS | < -0.25 |
| SEIVVGTNGR | < -0.25 |
| PRKEDVSRNTSSASDRVAGQ | < -0.25 |
| PYEPVAKPWF | < -0.25 |
| RFMPGANCSVRTRTIEGADQ | < -0.25 |
| GSAKRLLHKLIQVDNLVPGP | -0.241 |
| LGYS | < -0.25 |
| PYYTHLVRR | < -0.25 |
| GMRYREPSHALDCPSCTRAT | < -0.25 |
| LLKFGERL | < -0.25 |
| LCLEHDGPQ | < -0.25 |

| Substance | growth estimate |
| --- | --- |
| GTRSRRAERSGTLMVSLLSA | < -0.25 |
| GFLTRMEIAVSGWSDGAGAA | < -0.25 |
| AFTKC | < -0.25 |
| PELNRTFSRGQRARRRPAVT | < -0.25 |
| LDVDLRRRDG | < -0.25 |
| ESSNKVR | < -0.25 |
| IPFLAAIALNQFLEEVNPGP | < -0.25 |
| SYFHCPITRFVRMTLFQFTS | < -0.25 |
| NHCSGSAVPPQPLHCMGTGW | < -0.25 |
| HYSEIDGDWEPL | < -0.25 |
| LPVN | < -0.25 |
| HDDRHSPVFPDLGECISTMR | < -0.25 |
| QMPQFPGRHHTSGHVPITPL | < -0.25 |
| LPVRITTLCLFITWPFEGAP | < -0.25 |
| TVESLVFDHASGGGGLRQVE | < -0.25 |
| CSLFRSPIRTPPIFLQRAHI | -0.113 |
| NNPTVRPARSGMVCG | < -0.25 |
| ETNGLDGTQI | < -0.25 |
| DLEVSVEDCAAGVLPPFSGD | < -0.25 |
| ACSTGGGRLRAAWQRGVFNL | < -0.25 |
| TIKNRRRRVYCVTGPELRLG | < -0.25 |
| NPIR | < -0.25 |
| TADI | < -0.25 |
| LLSFKQLVPPRVDNGAY | < -0.25 |
| WPNRS | < -0.25 |
| WAL | < -0.25 |

| Substance | growth estimate |
| --- | --- |
| QKTVRSCGSTQNGDTLQPNT | < -0.25 |
| TNRAERTVCAALAVESYRRA | < -0.25 |
| CTGELSMVHCGVIFHRPVRQ | < -0.25 |
| WHFLVRPKCYN | < -0.25 |
| VSARPIYSWRPHDLFRSADA | < -0.25 |
| ATWLTEGRLLWHIRSTQGSM | -0.229 |
| LGNRQCNQASDALKSPVLVL | < -0.25 |
| SFVRSSMPAAVQSPVWENVP | < -0.25 |
| GRFIIALSVMGEEASGVGHD | < -0.25 |
| AYDV | < -0.25 |
| QIGLRVRY | < -0.25 |
| TKGRGFHSDTPGGRSGYRGT | < -0.25 |
| CELHSVFALYRSFSQFYEHA | < -0.25 |
| RSTTIHVFLPVDLWLGMAGW | < -0.25 |
| TGYFRITGGRRGHGETGTCV | < -0.25 |
| FDGP | < -0.25 |
| QENV | < -0.25 |
| HPRLIFDLYRRGIDENLIGE | < -0.25 |
| NDLALLSSKRYSRQENILVN | < -0.25 |
| LRLVVVL | < -0.25 |
| MAKTLWPVNVGSLNAGKDVW | < -0.25 |
| VNTYLVTGSRNGPCPGADTP | < -0.25 |
| LMIAVGNQYRYVQHMCSYGH | < -0.25 |
| SSYCQTYAARQDLAVDTPKM | < -0.25 |
| TRYDLFEDL | 0.0285 |
| KFAKFYTLKNAA | < -0.25 |

Some values from the entries so far:
Entry of QKTVRSCGSTQNGDTLQPNT under growth estimate: < -0.25
Entry of CTGELSMVHCGVIFHRPVRQ under growth estimate: < -0.25
Entry of CELHSVFALYRSFSQFYEHA under growth estimate: < -0.25
Entry of LRLVVVL under growth estimate: < -0.25

Carrying on.

| Substance | growth estimate |
| --- | --- |
| NVTTQNLKTPTLSFLEREEL | < -0.25 |
| LGPKLLRLWTLTPKFLTYVP | < -0.25 |
| ATPYVLRAQATLYPSTVVRT | < -0.25 |
| GTAWAGDTHRSIPPDVMGLT | < -0.25 |
| LIFHSSWLRVYAEDHSSASV | < -0.25 |
| PSSVGRLVGVTI | < -0.25 |
| TGLNP | < -0.25 |
| TRVRAACYVFQNIKNREQSG | < -0.25 |
| RSLSCSARRSPHVPQGDHGH | < -0.25 |
| WDKYQAFVRVCPMG | -0.246 |
| TCMTATLI | < -0.25 |
| VGGWLRLSGNSSHLESELST | < -0.25 |
| NPGSRSANEIEVRDCRAPLT | < -0.25 |
| TKGLLSFGRSAHGTLPCFSE | < -0.25 |
| PKNSNPFIRKPLEMLQIVAP | < -0.25 |
| SDGACSNS | < -0.25 |
| MMAGNRLVLSI | < -0.25 |
| PADGEISATQRLEMLETYTG | < -0.25 |
| QSEQTNRAGPDRRGEVWLNA | < -0.25 |
| VDVYVATTACEIPSLR | < -0.25 |
| GGYRTEV | < -0.25 |
